From US20260071003A1 come the findings set out here.

The target in test [1] is T1, Haptoglobin related protein (Hpr), as a component of purified human Trypanosome Lytic Factor (TLF) / human HDL float (human) (UniProt P00739).
T1 sequence: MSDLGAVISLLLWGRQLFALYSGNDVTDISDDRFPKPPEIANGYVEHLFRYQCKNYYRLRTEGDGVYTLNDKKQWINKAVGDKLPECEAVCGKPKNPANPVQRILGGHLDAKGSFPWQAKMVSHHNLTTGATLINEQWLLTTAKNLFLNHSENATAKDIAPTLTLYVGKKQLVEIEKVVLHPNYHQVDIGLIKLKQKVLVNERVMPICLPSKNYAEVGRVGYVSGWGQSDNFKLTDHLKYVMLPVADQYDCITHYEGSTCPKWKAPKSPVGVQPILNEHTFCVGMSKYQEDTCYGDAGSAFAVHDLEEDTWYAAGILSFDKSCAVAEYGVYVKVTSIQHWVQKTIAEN
Description: Western blot of column purified TLF (2 ug), non-reducing SDS-PAGE. (In general: In western blotting, separated proteins are transferred to a membrane and probed.)

In test [2] the target is ApoL1 Protein, human recombinant (Sino Biological 13910-H08B) (human) (UniProt O14791). Description: dot blot (native).
The target is the same in test [3]. Description: dot blot (native) of recombinant ApoL1.
The target is the same in test [4]. Description: Western blot of recombinant ApoL1, non-reducing and reducing.
Test [5] concerns the target T2, native human Apolipoprotein L1 (ApoL1), in purified TLF / HDL float / normal human serum / endogenous in culture (human) (UniProt O14791).
T2 sequence: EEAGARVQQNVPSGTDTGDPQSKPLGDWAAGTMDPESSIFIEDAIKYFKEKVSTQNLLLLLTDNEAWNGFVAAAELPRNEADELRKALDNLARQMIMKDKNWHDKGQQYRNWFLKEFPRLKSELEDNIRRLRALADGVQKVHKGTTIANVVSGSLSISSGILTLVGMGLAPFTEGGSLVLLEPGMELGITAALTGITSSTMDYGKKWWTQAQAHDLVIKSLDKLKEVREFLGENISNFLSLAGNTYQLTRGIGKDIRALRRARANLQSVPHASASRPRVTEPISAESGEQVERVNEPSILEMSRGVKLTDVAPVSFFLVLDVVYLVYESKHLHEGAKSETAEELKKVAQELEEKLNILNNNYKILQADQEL
The experiment in a line: Western blot of column purified TLF (2 ug), non-reducing and reducing.

No constants are given. Whether binding was seen depends on the method and setting. Some binding calls cover weakened binding; strength is not graded here.

B1: recombinant anti-Hpr antibody, clone SFII 134.3 (antibody, V domains shown)
VH: QIQLVQSGPELKKPGETVKISCKASGYIFTNYGMNWVRQAPGKGLKWMGWINSYTGEATYTDDLKGRFAFSLESSASTAYLQINNLKNEDTATYFCAREGYGDYGYSFDYWGQGTTLTVSS
VL: DIQMTQSPASLSASVGETVTITCRATKNIYTYLAWYQQKQGKSPQFLVYNAKTLAEGVPSRFSGSGSGTQFSLKINSLQPEDFGNYYCQHHYGTPRTFGGGTKLEIK
In the case of B1, the binding result in test [1] is “binds”.

B2: ascites Prot-G purified anti-Hpr antibody, clone SFII 134.3 (mouse IgG2a) (antibody, V domains shown)
VH: B1 VH
VL: DIQMTQSPASLSASVGETVTITCRATKNIYTYLAWYQQKQGKSPQFLVYNAKTLAEGVPSRFSGSGSGTQFSLKINSLQPEDFGNYYCQHHYGTPRTFGGGTKLEIKR
Take B2: the binding result in test [1] was “binds”.

B3: recombinant anti-ApoL1 antibody, clone SFIII 13.11 (antibody, V domains shown)
VH: EVQLVESGGGLVKPGGSLKLSCAASGFTFSTYAMSWVRQSPEKRLEWVAEISNGGLYTYYPDTVTGRFTISRDNVKNILYLEMSSLRSEDTAIYYCIRENRNWYFDLWGAGTTVTVSS
VL: DVLMTQTPLSLPVSLGDQASISCRSSQSIVNSNGNTYLEWYLQKPGQSPKLLIYKVSNRFSGVPDRFSGSGSGTDFTLKISRVEAEDLGVYYCFQGSHVPLTFGAGTKLELK
In the case of B3, the binding result in test [2], in test [3], in test [4] and in test [5] was “binds” each time.
